Laboratory results reported in doi:10.1101/2022.11.15.516687.
Results are given in words; binding and its absence hold for the method and conditions named. Binding seen in cells or lysates may run through a third protein. A result given as binding can be weak or reduced; the word gives no strength. Tags and fused reporters may be left off the sequences shown.

Key:
HA-tagged IDOL = biological target: T1, HA-tagged IDOL (UniProt Q8WY64); test: co-IP
T1 sequence: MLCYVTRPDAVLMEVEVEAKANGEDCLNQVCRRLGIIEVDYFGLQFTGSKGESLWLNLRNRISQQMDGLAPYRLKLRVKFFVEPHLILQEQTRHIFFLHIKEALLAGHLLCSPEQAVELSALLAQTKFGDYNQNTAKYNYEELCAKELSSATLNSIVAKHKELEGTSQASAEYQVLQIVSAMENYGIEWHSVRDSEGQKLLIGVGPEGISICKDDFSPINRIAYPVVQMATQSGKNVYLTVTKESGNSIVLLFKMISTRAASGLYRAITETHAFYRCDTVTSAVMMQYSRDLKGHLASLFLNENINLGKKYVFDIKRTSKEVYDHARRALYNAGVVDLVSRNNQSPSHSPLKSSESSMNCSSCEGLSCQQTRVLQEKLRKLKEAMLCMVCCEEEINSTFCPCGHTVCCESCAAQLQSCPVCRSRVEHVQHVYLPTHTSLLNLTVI

[1] = biological target: myc-tagged UL136p33 (human cytomegalovirus (HCMV)); test: co-IP

Molecule | binding (HA-tagged IDOL) | binding [1]
myc-tagged UL136p33 (human cytomegalovirus (HCMV)) | binds | –
HA-tagged IDOL (enzyme, UniProt Q8WY64 1-445) MLCYVTRPDAVLMEVEVEAKANGEDCLNQVCRRLGIIEVDYFGLQFTGSKGESLWLNLRNRISQQMDGLAPYRLKLRVKFFVEPHLILQEQTRHIFFLHIKEALLAGHLLCSPEQAVELSALLAQTKFGDYNQNTAKYNYEELCAKELSSATLNSIVAKHKELEGTSQASAEYQVLQIVSAMENYGIEWHSVRDSEGQKLLIGVGPEGISICKDDFSPINRIAYPVVQMATQSGKNVYLTVTKESGNSIVLLFKMISTRAASGLYRAITETHAFYRCDTVTSAVMMQYSRDLKGHLASLFLNENINLGKKYVFDIKRTSKEVYDHARRALYNAGVVDLVSRNNQSPSHSPLKSSESSMNCSSCEGLSCQQTRVLQEKLRKLKEAMLCMVCCEEEINSTFCPCGHTVCCESCAAQLQSCPVCRSRVEHVQHVYLPTHTSLLNLTVI | – | binds
